In PubChem BioAssay AID330 (DTP/NCI, 2004):
The list is a part of this screen's results and no random one: it gathers tests that were run many times, whatever their T/C, doses with no T/C, and many T/C values between a quarter and a half above the control. Other doses and runs of a compound stand elsewhere. T/C is the treated group as % of the vehicle group. Some entries give survivors of the animals treated and no T/C: the source files T/C as zero there, which appears to mark a toxic dose or a test without result, not a measured value. Some doses without a T/C left all or most animals alive at the check, yet need not have been tolerated: survival well below the control is almost never listed, so the zero probably covers shortened survival too. Counts of survivors are from the toxicity check (mostly the fifth day) where no day follows; animals may have died later. Schedule codes are those of the source, read here as Q, the interval in days (D) or hours (H), X, the number of doses. Some entries were tested several times; the values are given in rising order. For survival time, this PubChem deposit counts one and a half times the control or more as active, and values a quarter to a half above the control carry no call in these data; other NCI protocols may use other cut-offs. Some T/C values carry the count of animals alive at the toxicity check (mostly the fifth day); where none is given, no animal had died by that day. Marks such as (2×) give the number of equal values in this list.

System: P388 leukemia ip, CD2F1 mice, survival T/C
Test: NCI In Vivo Anticancer Drug Screen. Data for tumor model P388 Leukemia (intraperitoneal) in CD2F1 (CDF1) mice
Settings: T/C endpoint: median survival time, higher T/C = longer survival
[1] = dose: 240.0 mg/kg/injection, schedule: Q01DX005 (ip), vehicle: saline with Tween-80
[2] = dose: 200.0 mg/kg/injection, schedule: Q01DX009 (ip), vehicle: Klucel (hydroxypropylcellulose) (HPC)
[3] = dose: 12.5 mg/kg/injection, schedule: Q01DX009 (ip), vehicle: water
[4] = dose: 25.0 mg/kg/injection, schedule: Q01DX009 (ip), vehicle: water
[5] = dose: 50.0 mg/kg/injection, schedule: Q01DX009 (ip), vehicle: water
[6] = dose: 100.0 mg/kg/injection, schedule: Q01DX009 (ip), vehicle: saline with Tween-80
[7] = dose: 100.0 mg/kg/injection, schedule: Q01DX009 (ip), vehicle: water
[8] = dose: 200.0 mg/kg/injection, schedule: Q01DX009 (ip), vehicle: saline with Tween-80
[9] = dose: 200.0 mg/kg/injection, schedule: Q01DX009 (ip), vehicle: water
[10] = dose: 60.0 mg/kg/injection, schedule: Q01DX005 (ip), vehicle: Klucel (hydroxypropylcellulose) (HPC)
[11] = dose: 120.0 mg/kg/injection, schedule: Q01DX005 (ip), vehicle: Klucel (hydroxypropylcellulose) (HPC)
[12] = dose: 240.0 mg/kg/injection, schedule: Q01DX005 (ip), vehicle: Klucel (hydroxypropylcellulose) (HPC)
[13] = dose: 100.0 mg/kg/injection, schedule: Q01DX005 (ip), vehicle: saline
[14] = dose: 200.0 mg/kg/injection, schedule: Q01DX005 (ip), vehicle: saline with Tween-80

SMILES: CCC(=O)OC1CC=NN2C(=O)C(NC(=O)c3nc4ccc(OC)cc4cc3O)COC(=O)C(C(C)(C)O)N(C)C(=O)CN(C)C(=O)CNC(=O)C3C(OC(C)=O)CC=NN3C(=O)C(NC(=O)c3nc4ccc(OC)cc4cc3O)COC(=O)C(C(C)(C)O)N(C)C(=O)CN(C)C(=O)CNC(=O)C12 (centres undefined)
- T/C (dose: 5.0 micrograms/kg/injection, schedule: Q01DX005 (ip), vehicle: DMSO): 126 % of control
- T/C (dose: 10.0 micrograms/kg/injection, schedule: Q01DX005 (ip), vehicle: DMSO): 138 % of control

SMILES: Nc1ccc2c(SCCSc3c4ccccc4nc4cc(N)ccc34)c3ccccc3nc2c1
- survivor count [1]: 3 of 6

SMILES: O=c1c2ccccc2sc2c([N+](=O)[O-])ccc(NCCCC3CCCN4CCCCC34)c12 (centres undefined)
- survivor count (dose: 255.0 mg/kg/injection, schedule: Q01DX005 (ip), vehicle: saline with Tween-80): 1 of 6

SMILES: Nc1nc(N)n2c(N)nnc2n1
- survivor count (dose: 400.0 mg/kg/injection, schedule: Q01DX009 (ip), vehicle: saline): 6 of 6

SMILES: O=C1c2ccccc2C(=O)C1(Br)C(Br)c1ccccc1 (centres undefined)
- survivor count [2]: 5 of 6
- survivor count (dose: 400.0 mg/kg/injection, schedule: Q01DX009 (ip), vehicle: Klucel (hydroxypropylcellulose) (HPC)): 5 of 6

SMILES: Cc1c2oc3c(C)ccc(C(=O)NCCCN4CCN(C)CC4)c3nc-2c(C(=O)NCCCN2CCN(C)CC2)c(N)c1=O
- T/C (dose: 50.0 mg/kg/injection, schedule: Q04DX003 (ip), vehicle: saline with Tween-80): 125 % of control
- survivor count (dose: 200.0 mg/kg/injection, schedule: Q04DX003 (ip), vehicle: saline with Tween-80): 4 of 6
- survivor count (dose: 400.0 mg/kg/injection, schedule: Q04DX003 (ip), vehicle: saline with Tween-80): 0 of 6

SMILES: CCCN(CCC)CN(CCC)CCC
- survivor count (dose: 200.0 mg/kg/injection, schedule: Q01DX009 (ip), vehicle: saline): 2 of 6

SMILES: O=C1NC(=O)C2C3C=CC(C12)C1C2C(=O)NC(=O)C2C31 (centres undefined)
- T/C (dose: 12.5 mg/kg/injection, schedule: Q01DX009 (ip), vehicle: saline with Tween-80): 104, 108, 110, 111, 117, 119, 121, 126, 129 % of control
- T/C [3]: 97, 101, 108, 109 (2×), 111 (2×), 112 (2×), 117, 128, 142 % of control
- survivor count [3]: 4 of 6 and 6 of 6
- T/C (dose: 18.0 mg/kg/injection, schedule: Q01DX009 (ip), vehicle: water): 133 % of control
- T/C (dose: 25.0 mg/kg/injection, schedule: Q01DX009 (ip), vehicle: saline with Tween-80): 115, 120, 122, 123, 129, 130, 133, 136 (2×), 138 (2×), 139, 141, 142 (2×), 144, 149, 163 % of control
- T/C [4]: 115 (2×), 117, 118, 119, 122, 125, 126 (3×), 129, 130 (2×), 132, 132 [5 of 6 alive], 136, 144, 145, 147 (2×), 152, 153, 160, 165, 174 % of control
- survivor count [4]: 3 of 6 and 4 of 6
- T/C (dose: 50.0 mg/kg/injection, schedule: Q01DX009 (ip), vehicle: saline with Tween-80): 127, 130, 140, 142, 144, 145, 150, 152, 155, 162 (2×), 163, 168, 170, 172, 174, 175, 176, 177, 206 % of control
- T/C [5]: 86 [5 of 6 alive], 92, 94, 104 [5 of 6 alive], 107, 107 [5 of 6 alive], 118, 129 [5 of 6 alive], 148 (2×), 168 [5 of 6 alive], 171, 175, 180, 189, 191, 192, 199, 200, 203, 205, 207, 209, 215, 219 % of control
- survivor count [5]: 0 of 6 and 6 of 6
- survivor count (dose: 83.3 mg/kg/injection, schedule: Q01DX009 (ip), vehicle: water): 3 of 6
- survivor count (dose: 100.0 mg/kg/injection, schedule: Q01DX009 (ip), vehicle: distilled water + Tween-80): 4 of 5
- T/C [6]: 94, 100, 107, 111 [5 of 6 alive], 140, 141, 147, 152 (2×), 156, 158, 170, 177 [5 of 6 alive], 179 (2×), 181, 198, 203 % of control
- survivor count [6]: 5 of 6 and 6 of 6
- T/C [7]: 127 and 184 % of control
- survivor count [7]: 0 of 6, 1 of 6, 2 of 6, 3 of 6, 4 of 6
- survivor count (dose: 138.9 mg/kg/injection, schedule: Q01DX009 (ip), vehicle: water): 0 of 6
- survivor count (dose: 200.0 mg/kg/injection, schedule: Q01DX009 (ip), vehicle: distilled water + Tween-80): 0 of 5
- T/C [8]: 90 [5 of 6 alive], 124, 158 [4 of 6 alive], 161, 175 % of control
- survivor count [8]: 0 of 6, 1 of 6, 3 of 6, 4 of 6, 5 of 6, 6 of 6
- T/C [9]: 151 % of control
- survivor count [9]: 0 of 6

SMILES: CCN(CC)Cc1cc(N=Nc2c(O)ccc3c(N=Nc4ccc(O)c(CN(CC)CC)c4)c(O)ccc23)ccc1O
- T/C (dose: 200.0 mg/kg/injection, schedule: Q01DX005 (ip), vehicle: Klucel (hydroxypropylcellulose) (HPC)): 126 % of control

SMILES: NC(=S)c1cc(Cl)cc(Cl)c1N
- survivor count [10]: 1 of 6
- survivor count [11]: 0 of 6
- survivor count [12]: 0 of 6

SMILES: c1cc(C2=NCCN2)ccc1Nc1ccc(-c2cc3ccc(C4=NCCN4)cc3[nH]2)cc1
- T/C (dose: 1.87 mg/kg/injection, schedule: Q01DX005 (ip), vehicle: Klucel (hydroxypropylcellulose) (HPC)): 148 % of control
- survivor count [10]: 1 of 6
- survivor count [11]: 0 of 6
- survivor count [12]: 0 of 6

SMILES: CC1C(c2ccccc2)OCN1C (centres undefined)
- T/C [13]: 130 % of control
- survivor count [13]: 0 of 6 and 3 of 6
- survivor count (dose: 200.0 mg/kg/injection, schedule: Q01DX005 (ip), vehicle: saline): 1 of 6 and 4 of 6

SMILES: C=C1C[C@@H](C2OC3OC(C)(C)OC3C2OCc2ccccc2)OC1=O (some centres undefined)
- T/C [14]: 125 % of control

SMILES: COc1cc(C(=O)N/N=C/c2cccc([N+](=O)[O-])c2)cc(OC)c1OC
- T/C [6]: 125 % of control
- T/C [8]: 133 % of control

SMILES: Cc1cc(N(c2ccc([N+](=O)[O-])cc2)S(C)(=O)=O)c(C)cc1C=O
- survivor count [8]: 6 of 6

SMILES: CC1OC(Nc2ncnc3nc[nH]c23)C(O)C(O)C1NC(=O)CNC(=O)CCCCCCCCC/C=C\C(C)(C)C (centres undefined)
- T/C (dose: 1.0 mg/kg/injection, schedule: Q01DX009 (ip), vehicle: distilled water + Tween-80): 138 and 148 % of control
- T/C (dose: 2.0 mg/kg/injection, schedule: Q01DX009 (ip), vehicle: distilled water + Tween-80): 137 and 148 % of control
- T/C (dose: 4.0 mg/kg/injection, schedule: Q01DX009 (ip), vehicle: distilled water + Tween-80): 141 % of control
- survivor count (dose: 8.0 mg/kg/injection, schedule: Q01DX009 (ip), vehicle: distilled water + Tween-80): 5 of 6 and 6 of 6

SMILES: O=Cc1cc(C=O)c2ccc(=O)[nH]c2n1
- survivor count [12]: 4 of 6

SMILES: O=S1(=O)C2C=CC1C(Br)C(Br)CC2 (centres undefined)
- survivor count (dose: 50.0 mg/kg/injection, schedule: Q01DX009 (ip), vehicle: Klucel (hydroxypropylcellulose) (HPC)): 6 of 6

SMILES: N=C1C=C[C@]2(O)C[C@H](Cl)CN12
- survivor count (dose: 11.88 mg/kg/injection, schedule: Q01DX009 (ip), vehicle: saline): 1 of 6
- survivor count (dose: 23.75 mg/kg/injection, schedule: Q01DX009 (ip), vehicle: saline): 0 of 6
- survivor count (dose: 47.5 mg/kg/injection, schedule: Q01DX009 (ip), vehicle: saline): 0 of 6
- survivor count (dose: 95.0 mg/kg/injection, schedule: Q01DX009 (ip), vehicle: saline): 0 of 6
- survivor count (dose: 190.0 mg/kg/injection, schedule: Q01DX009 (ip), vehicle: saline): 0 of 6

SMILES: CC1(C)CC(=O)[C@H]2SCC(=O)CC21 (some centres undefined)
- survivor count [14]: 0 of 6

SMILES: CC(=O)OC1CC2C3(C)CCC4C(C)(C)CCCC4(C)C3CC(O)C2(C)C2C1=COC2OC(C)=O (centres undefined)
- survivor count [10]: 2 of 6 and 4 of 6
- survivor count [11]: 0 of 6
- survivor count [12]: 0 of 6

SMILES: CCN(CC)CCNC(=O)c1nn(-c2ccccc2)c2c1CCCc1ccccc1-2
- survivor count (dose: 200.0 mg/kg/injection, schedule: Q04DX003 (ip), vehicle: Klucel (hydroxypropylcellulose) (HPC)): 2 of 6
- survivor count (dose: 400.0 mg/kg/injection, schedule: Q04DX003 (ip), vehicle: Klucel (hydroxypropylcellulose) (HPC)): 0 of 6

SMILES: FC(F)(F)c1ccc(Cl)c(N=Cc2ccc(C=Nc3cc(C(F)(F)F)ccc3Cl)cc2)c1
- survivor count [2]: 3 of 6

SMILES: CC12CC3CC(C)(C1)CC(SC(=N)N)(C3)C2
- survivor count (dose: 60.0 mg/kg/injection, schedule: Q01DX005 (ip), vehicle: saline with Tween-80): 0 of 6
- survivor count (dose: 120.0 mg/kg/injection, schedule: Q01DX005 (ip), vehicle: saline with Tween-80): 0 of 6
- survivor count [1]: 0 of 6
